# Laboratory results from patent US20070275935A1, “Estratriene Derivatives” (priority 2003, published 2007).
# Entries after “also recorded” stand apart in the source; their conditions may differ. Some entries of the source have several records that differ or are many. This is not the full list of results. The source may hold further records. The records of an entry differ, and nothing given here explains why; dose, time, organism, isomer or construct need not be as stated for each record.
# What was measured:
# [1] = system: bleomycin-induced fibrosis in C57BL6 female mice; experiment: Bleomycin model of pulmonary fibrosis in mice; format: in vivo; conditions: 4NO 50 mg/kg/day i.p., listed as 4NO
# [2] = system: LPS-induced inflammation in female Balb/c mice; experiment: LPS-induced pulmonary inflammation in mice; conditions: BALF zymography; 150 mg/kg i.p. 2 hours before LPS 1 μg, 24 hours; n = 6; LPS alone 0.46 ± 0.10; listed as 4NO, 150 mg/kg
smiles,measurement,setting,value
COc1cc2c(cc1O)/C(=N/OCc1ccc([N+](=O)[O-])cc1)C[C@@H]1[C@@H]2CC[C@]2(C)[C@@H](O)CC[C@@H]12,BALF cell #,"[1]; n = 5-6, bleomycin alone 11463 ± 2130, control 3926 ± 881","increased significantly in mice treated with vehicle/bleomycin, but not in those treated with bleomycin/4NO; also recorded: 8356 ± 1434"
same,Resistance,"[1]; n = 11-12, bleomycin alone 0.50 ± 0.03, control 0.42 ± 0.01","increased significantly in mice treated with vehicle/bleomycin, but not in those treated with bleomycin/4NO; also recorded: 0.45 ± 0.01 cmH2O/ml/s"
same,Proliferation Mesenchymal,"[1]; BrdU positive nuclei as percentage of total nuclei, major airway, n = 6, bleomycin alone 10.16 ± 1.969",selectively attenuates and 6.065 ± 1.223
same,Tissue area (%),"[1]; percentage of grid points falling on tissue, n = 6, bleomycin alone 44.4 ± 2.3","increased in bleomycin/vehicle mice, but not in those treated with bleomycin/4NO; also recorded: 35.0 ± 1.7%"
same,Active MMP-9,[2],increased significantly in LPS/vehicle treated animals but not in those pretreated with 4NO or CP-DM-4-35; also recorded: 0.32 ± 0.08 Arbitrary units
